These are yes or no findings as the source states them, for the method shown. Binding seen in cells or lysates may run through a third protein. Some entries that bind do so weakly or less than the wild type. Tags and fused reporters may be left off the sequences shown.
T1: LGN wild-type, expressed in HEK293T cells as two differently tagged copies (human) (UniProt P81274)
T1 sequence: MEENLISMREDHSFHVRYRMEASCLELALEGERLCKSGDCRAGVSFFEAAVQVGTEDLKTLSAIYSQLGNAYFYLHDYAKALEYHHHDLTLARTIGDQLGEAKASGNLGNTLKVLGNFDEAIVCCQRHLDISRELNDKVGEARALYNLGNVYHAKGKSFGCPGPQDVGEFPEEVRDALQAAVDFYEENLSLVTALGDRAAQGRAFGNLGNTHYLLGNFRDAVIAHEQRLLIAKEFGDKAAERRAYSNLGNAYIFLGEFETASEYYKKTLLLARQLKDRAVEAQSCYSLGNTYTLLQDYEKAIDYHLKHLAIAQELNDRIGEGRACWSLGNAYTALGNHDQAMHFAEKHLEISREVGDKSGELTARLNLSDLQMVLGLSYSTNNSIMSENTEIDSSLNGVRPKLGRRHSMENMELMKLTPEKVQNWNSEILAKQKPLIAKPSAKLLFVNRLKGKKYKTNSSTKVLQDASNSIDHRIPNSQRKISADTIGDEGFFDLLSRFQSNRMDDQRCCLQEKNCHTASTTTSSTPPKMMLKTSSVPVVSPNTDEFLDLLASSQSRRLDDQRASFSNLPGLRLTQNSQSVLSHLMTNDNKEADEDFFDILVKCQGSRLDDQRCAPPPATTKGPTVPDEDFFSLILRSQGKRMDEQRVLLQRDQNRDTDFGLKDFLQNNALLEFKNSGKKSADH

B1: LGN wild-type, expressed in HEK293T cells as two differently tagged copies (protein, UniProt P81274 1-684)
chain: T1 sequence
B2: NuMA^1821–2115 (domain or fragment, UniProt Q14980 1821-2115)
chain: KKLDVEEPDSANSSFYSTRSAPASQASLRATSSTQSLARLGSPDYGNSALLSLPGYRPTTRSSARRSQAGVSSGAPPGRNSFYMGTCQDEPEQLDDWNRIAELQQRNRVCPPHLKTCYPLESRPSLSLGTITDEEMKTGDPQETLRRASMQPIQIAEGTGITTRQQRKRVSLEPHQGPGTPESKKATSCFPRPMTPRDRHEGRKQSTTEAQKKAAPASTKQADRRQSMAFSILNTPKKLGNSLLRRGASKKALSKASPNTRSGTRRSPRIATTTASAATAAAIGATPRAKGKAKH

Molecular target: T1, LGN wild-type, expressed in HEK293T cells as two differently tagged copies (human)
Experiment: co-IP; mitotic (nocodazole) lysates of HEK293T cells depleted of endogenous NuMA and expressing NuMA^1821–2115, co-transfected with GFP- and 3xFLAG-tagged LGN; anti-GFP agarose beads, 2 h at 4 °C; immunoblot

| Binder | binding |
| --- | --- |
| B1 | binds |
| B2 | binds |

— article PMC6525239, “Hexameric NuMA:LGN structures promote multivalent interactions required for planar epithelial divisions” (Nature Communications, 2019)
